Assay results reported in paper PMC12608320, “Insecticidal Potential of Aniba canelilla (H.B.K.) Mez Essential Oil Against Aedes aegypti: Larvicidal and Adulticidal Activities, Mechanism of Action, and Formulation Development” (Plants, 2025).

Tests used:
Aedes aegypti larvae = experiment: Larvicidal activity against Aedes aegypti third instar larvae
Procedure: Eggs of the Rockefeller strain of Aedes aegypti were hatched in filtered water, and larvae were reared under controlled conditions (28 ± 1 °C; 12 h photoperiod) until reaching the third instar (L3). […] Each test condition, including controls, was run in quadruplicate. […] Formulations (PEOANIB, PNFTANE, PNFTENE) were applied with the same protocol used for DMSO-dissolved samples, keeping the final solvent concentration at 1% (v/v) of the total water volume.
Negative controls contained either DMSO (200 µL) alone or blank nanomicelles (NBr) at a volume matching the highest concentration tested, whereas the positive control comprised temephos at 1 µg mL^−1. After 14 days of preparation of the formulation, an activity confirmation test was performed at fixed concentrations of PNFTANE (70 ppm) and PNFTENE (5 ppm) formulations. The assays were performed in quadruplicate.

Artemia salina nauplii = experiment: Toxicity test on Artemia salina nauplii (non-target); type: in vivo; details: 24 h
Procedure: Toxicity assays with Artemia salina followed the procedure of Meyer and collaborators with adaptations like those of [86, 107]. For cyst hatching, 25 mg of eggs were placed in a cuboid-glass vessel containing 600 mL of artificial seawater (38 g L^−1 in distilled water) and incubated at 28–30 °C under continuous illumination from a 40 W incandescent lamp. After 24 h, the nauplii (first larval stage) were transferred to fresh saline and reared for an additional 24 h under the same conditions to obtain metanauplii (second larval stage), which were used in the bioassays. Ten metanauplii were exposed to 10 mL of saline containing the test samples dissolved in DMSO. […] After dosing, organisms were maintained at 28–30 °C under artificial light for 24 h. Mortality defined as immobility or sinking to the bottom was recorded, and LC50 values were calculated for each sample. All experiments were performed in triplicate with independent replicates under identical conditions to ensure reproducibility.

Structure (SMILES)	Slope ± SEM (LC99 fit) (Aedes aegypti larvae; 24 h exposure)	Slope ± SEM (LC99 fit) (Aedes aegypti larvae; 48 h exposure)	Slope ± SEM (Artemia salina nauplii)
O=[N+]([O-])CCc1ccccc1 [NFTANE, 1-Nitro-2-phenylethane]	22.2 ± 3.1	36.9 ± 8.0	5.8 ± 0.9
O=[N+]([O-])C=Cc1ccccc1 [NFTENE, 1-Nitro-2-phenylethene]	2.4 ± 0.1	3.7 ± 0.1	4.5 ± 0.6
